Source: PubChem BioAssay AID1259308 (NCATS, 2017)
In all, the deposit lists about 59,000 reagents; shown is a part drawn at random. Of all reagents, about 1,510 (2.6%) are marked active. 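Calls use total luciferase alone and ignore viability, so some active siRNAs may act by altering cell number.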 The numbers tell different reagents against one gene apart. Not all columns of the deposit are shown.

Screen: 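Genes whose loss raises luciferase production in HEK293 cells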 (primary screen)
Cells: human HEK293 embryonic kidney cells stably expressing firefly luciferase (HEK-CMV-Luc2-Hygro)
Reagents: single siRNA against human genes, 0.8 pmol siRNA per well
Timing: 72 h
Measurement: 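Luciferase light (ONE-Glo) measured on one replicate plate set and viability (CellTiter-Glo) on the other, scaled to a negative control siRNA, with robust z-scores and luciferase per cell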
Direction: total luciferase, z-score and total luciferase, % of control: higher = more reporter protein produced
Hit rule: 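An siRNA counts as active if its total luciferase robust z-score exceeds 3; genes with two or more such siRNAs out of three were retested with fresh siRNAs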
Calls: active = raised luciferase; inactive = no rise

For DCSTAMP #1 the deposit lists total luciferase, z-score -0.133; total luciferase, % of control 79.2; inactive.
With knock-down of DCSTAMP #2, the screen gave total luciferase, z-score 0.225; total luciferase, % of control 86.4; inactive.
With knock-down of DCSTAMP #3 the results were total luciferase, z-score -0.437; total luciferase, % of control 73.2; inactive.
Knock-down of HAND2-AS1 #1 came out at: total luciferase, z-score 0.159; total luciferase, % of control 85; inactive.
Depletion of HAND2-AS1 #2 came out at: total luciferase, z-score -0.613; total luciferase, % of control 69.7; inactive.
With knock-down of HAND2-AS1 #3, the screen gave total luciferase, z-score 0.159; total luciferase, % of control 85; inactive.
Depletion of ZFYVE27 #1 resulted in: total luciferase, z-score 0.677; total luciferase, % of control 95.3; inactive.
ZFYVE27 #2 showed total luciferase, z-score -0.873; total luciferase, % of control 64.5; inactive.
ZFYVE27 #3 gave total luciferase, z-score -0.719; total luciferase, % of control 67.6; inactive.
DISP3 #1 showed total luciferase, z-score 0.105; total luciferase, % of control 84; inactive.
DISP3 #2 gave total luciferase, z-score -1.14; total luciferase, % of control 59.2; inactive.
After knock-down of DISP3 #3, the record shows total luciferase, z-score -0.181; total luciferase, % of control 78.3; inactive.
Silencing of OR51I1 #1 came out at: total luciferase, z-score 0.988; total luciferase, % of control 102; inactive.
Against OR51I1 #2, the values are total luciferase, z-score -1.55; total luciferase, % of control 51.1; inactive.
Silencing of OR51I1 #3 came out at: total luciferase, z-score 1.65; total luciferase, % of control 115; inactive.
OR13C3 #1 showed total luciferase, z-score 0.222; total luciferase, % of control 86.3; inactive.
Knock-down of OR13C3 #2 resulted in: total luciferase, z-score 0.267; total luciferase, % of control 87.2; inactive.
OR13C3 #3 gave total luciferase, z-score 0.518; total luciferase, % of control 92.2; inactive.
Depletion of RPGRIP1 #1 resulted in: total luciferase, z-score -0.338; total luciferase, % of control 75.2; inactive.
Knock-down of RPGRIP1 #2 resulted in: total luciferase, z-score -0.747; total luciferase, % of control 67; inactive.
With knock-down of RPGRIP1 #3, the record shows total luciferase, z-score -0.743; total luciferase, % of control 67.1; inactive.
Depletion of RLF #1 resulted in: total luciferase, z-score 0.33; total luciferase, % of control 88.5; inactive.
Against RLF #2, the entry reads total luciferase, z-score 1.62; total luciferase, % of control 114; inactive.
Depletion of RLF #3 came out at: total luciferase, z-score 0.188; total luciferase, % of control 85.6; inactive.
With knock-down of ABT1 #1, the record shows total luciferase, z-score -1.42; total luciferase, % of control 53.7; inactive.
For ABT1 #2, the values are total luciferase, z-score -0.318; total luciferase, % of control 75.6; inactive.
After knock-down of ABT1 #3, the screen gave total luciferase, z-score -2.64; total luciferase, % of control 29.3; inactive.
With knock-down of MRAS #1, the record shows total luciferase, z-score -0.0195; total luciferase, % of control 81.5; inactive.
For MRAS #2, the entry reads total luciferase, z-score -0.938; total luciferase, % of control 63.2; inactive.
Silencing of MRAS #3 came out at: total luciferase, z-score -0.435; total luciferase, % of control 73.2; inactive.
For NRG1 #1, the entry reads total luciferase, z-score -0.501; total luciferase, % of control 71.9; inactive.
NRG1 #2 scored total luciferase, z-score 0.234; total luciferase, % of control 86.5; inactive.
With knock-down of NRG1 #3, the record shows total luciferase, z-score 5.46; total luciferase, % of control 191; active.
Knock-down of NFIL3 #1 gave: total luciferase, z-score 0.595; total luciferase, % of control 93.7; inactive.
Depletion of NFIL3 #2 resulted in: total luciferase, z-score 1.52; total luciferase, % of control 112; inactive.
NFIL3 #3 showed total luciferase, z-score 2.14; total luciferase, % of control 124; inactive.
GDAP1L1 #1 gave total luciferase, z-score -0.526; total luciferase, % of control 71.4; inactive.
After knock-down of GDAP1L1 #2 the results were total luciferase, z-score -0.606; total luciferase, % of control 69.8; inactive.
With knock-down of GDAP1L1 #3, the record shows total luciferase, z-score 0.191; total luciferase, % of control 85.7; inactive.
For OR5I1 #1 the deposit lists total luciferase, z-score -0.643; total luciferase, % of control 69.1; inactive.
With knock-down of OR5I1 #2, the screen gave total luciferase, z-score -1.08; total luciferase, % of control 60.4; inactive.
OR5I1 #3 scored total luciferase, z-score 0.132; total luciferase, % of control 84.5; inactive.
